One experiment concerns the target FLAG-β-TrCP1 (UniProt Q9Y297). Nature of the experiment: co-IP; HEK293 cells transfected with FLAG-β-TrCP1, left untreated or treated with VM-26 and MG132 (20 μM) for 5 h; IP with anti-FLAG beads, immunoblot. (In general: Immunoblotting shows a protein as a band on a membrane.)
Experiment [1] addresses β-TrCP1 (endogenous, HeLa) (human (endogenous in HeLa)) (UniProt Q9Y297). The experiment in a line: co-IP; HeLa cell lysate; IP with β-TrCP1 antibody or normal rabbit IgG; immunoblot with anti-TOP2β.
A further experiment addresses FLAG-TOP2β (wild-type) (UniProt Q02880). Nature of the experiment: co-IP; HEK293 cells transfected with the indicated plasmids (TOP2β wild type or degron mutants), treated with MG132 and VM-26 for 5 h; IP with anti-FLAG beads, immunoblot.

Sequences of proteins named here, by UniProt entry; tags and fusion partners are left off. A change or cut given only in a name is not applied to a line headed by its entry. A line that says so, or that is headed by a name, gives the form on record, which may keep a tag or linker.
UniProt Q9Y297: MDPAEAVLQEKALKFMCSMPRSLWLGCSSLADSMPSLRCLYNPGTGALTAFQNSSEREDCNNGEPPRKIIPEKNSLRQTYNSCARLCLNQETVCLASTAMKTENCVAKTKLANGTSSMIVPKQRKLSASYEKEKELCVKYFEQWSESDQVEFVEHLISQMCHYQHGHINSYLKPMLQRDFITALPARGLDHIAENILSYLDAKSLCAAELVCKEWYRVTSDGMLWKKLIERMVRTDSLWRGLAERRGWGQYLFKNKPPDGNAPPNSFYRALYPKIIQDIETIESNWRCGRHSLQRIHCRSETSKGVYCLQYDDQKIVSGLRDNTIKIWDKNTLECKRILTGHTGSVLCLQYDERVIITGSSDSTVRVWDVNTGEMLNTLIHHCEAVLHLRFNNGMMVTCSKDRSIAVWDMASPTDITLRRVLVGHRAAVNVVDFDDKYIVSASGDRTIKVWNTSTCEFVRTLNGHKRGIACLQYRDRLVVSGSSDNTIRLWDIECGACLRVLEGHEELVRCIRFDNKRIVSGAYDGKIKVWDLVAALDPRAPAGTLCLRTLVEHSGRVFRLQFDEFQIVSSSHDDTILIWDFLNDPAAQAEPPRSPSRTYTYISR
FLAG-TOP2β (wild-type) (Q02880-2, form named): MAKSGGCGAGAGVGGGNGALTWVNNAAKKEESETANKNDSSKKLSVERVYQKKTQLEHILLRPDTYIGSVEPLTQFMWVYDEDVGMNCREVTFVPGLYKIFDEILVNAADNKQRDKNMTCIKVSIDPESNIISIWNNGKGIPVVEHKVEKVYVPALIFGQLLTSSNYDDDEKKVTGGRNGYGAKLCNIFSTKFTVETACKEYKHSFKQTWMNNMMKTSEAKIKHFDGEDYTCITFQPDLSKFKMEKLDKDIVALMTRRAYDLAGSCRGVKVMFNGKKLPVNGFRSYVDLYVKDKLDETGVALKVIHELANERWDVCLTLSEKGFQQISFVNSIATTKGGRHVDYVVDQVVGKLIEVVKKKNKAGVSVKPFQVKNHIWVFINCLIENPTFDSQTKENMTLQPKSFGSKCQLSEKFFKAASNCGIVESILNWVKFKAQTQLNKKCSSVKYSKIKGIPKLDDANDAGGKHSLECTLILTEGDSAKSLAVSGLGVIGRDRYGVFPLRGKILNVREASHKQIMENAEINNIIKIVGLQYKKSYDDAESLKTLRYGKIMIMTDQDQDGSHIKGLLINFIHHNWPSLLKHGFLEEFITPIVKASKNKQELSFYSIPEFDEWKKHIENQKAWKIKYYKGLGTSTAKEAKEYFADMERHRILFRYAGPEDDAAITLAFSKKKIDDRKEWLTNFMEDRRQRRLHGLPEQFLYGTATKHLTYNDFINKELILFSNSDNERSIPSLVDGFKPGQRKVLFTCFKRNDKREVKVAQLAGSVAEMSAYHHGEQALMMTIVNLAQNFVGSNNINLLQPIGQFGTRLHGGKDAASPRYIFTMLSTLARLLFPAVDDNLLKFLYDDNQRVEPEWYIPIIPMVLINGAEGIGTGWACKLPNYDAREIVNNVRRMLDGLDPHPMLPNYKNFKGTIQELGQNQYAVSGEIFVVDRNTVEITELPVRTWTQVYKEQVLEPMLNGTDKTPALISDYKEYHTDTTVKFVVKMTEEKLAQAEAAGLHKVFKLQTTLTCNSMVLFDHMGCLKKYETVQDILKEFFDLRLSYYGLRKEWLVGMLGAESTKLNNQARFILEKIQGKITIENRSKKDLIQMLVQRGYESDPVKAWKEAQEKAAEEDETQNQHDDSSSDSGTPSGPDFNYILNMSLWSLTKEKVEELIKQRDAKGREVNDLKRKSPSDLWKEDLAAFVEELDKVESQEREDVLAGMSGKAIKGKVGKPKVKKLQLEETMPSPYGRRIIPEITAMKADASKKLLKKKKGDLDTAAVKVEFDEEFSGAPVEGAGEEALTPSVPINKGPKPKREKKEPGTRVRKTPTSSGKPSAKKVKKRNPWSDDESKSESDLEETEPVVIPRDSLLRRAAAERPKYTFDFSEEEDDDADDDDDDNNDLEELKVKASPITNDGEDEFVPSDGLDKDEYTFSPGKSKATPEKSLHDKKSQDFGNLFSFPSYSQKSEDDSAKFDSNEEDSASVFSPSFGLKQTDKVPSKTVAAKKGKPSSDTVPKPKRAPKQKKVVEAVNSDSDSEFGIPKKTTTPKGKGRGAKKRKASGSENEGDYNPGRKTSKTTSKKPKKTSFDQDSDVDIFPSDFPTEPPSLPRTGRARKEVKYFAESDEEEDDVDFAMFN

Results are given in words; binding and its absence hold for the method and conditions named. Binding seen in cells or lysates may run through a third protein. Some results given as binding are weak or reduced against the parent protein; the word gives no strength.

The values that follow come from PMC6997367.

Turning to “endogenous TOP2β (HEK293) (from UniProt Q02880-2 1-1621)”, the binding result in the experiment with FLAG-β-TrCP1 was “binds”. With “endogenous TOP2β (HeLa) (from UniProt Q02880-2 1-1621)”, the binding entry in experiment [1] is reported as “binds”.

As to “β-TrCP1 (in the IP of Fig. 3c) (from UniProt Q9Y297 1-605)”, in the experiment with FLAG-TOP2β (wild-type), the binding entry was “binds”.
